Data published in the supplement of paper PMC12819154, “High-throughput peptide-centric local stability assay extends protein–ligand identification to membrane proteins, tissues and bacteria” (Nature Structural & Molecular Biology, 2025).
The list shows a part of the results. Most entries show no effect beyond the scatter of the controls.

By UniProt entry, the sequences of proteins in these tests, tags left out. Where a name states a change or a piece, a line headed by the entry shows the natural chain unless it says otherwise.
UniProt P15036: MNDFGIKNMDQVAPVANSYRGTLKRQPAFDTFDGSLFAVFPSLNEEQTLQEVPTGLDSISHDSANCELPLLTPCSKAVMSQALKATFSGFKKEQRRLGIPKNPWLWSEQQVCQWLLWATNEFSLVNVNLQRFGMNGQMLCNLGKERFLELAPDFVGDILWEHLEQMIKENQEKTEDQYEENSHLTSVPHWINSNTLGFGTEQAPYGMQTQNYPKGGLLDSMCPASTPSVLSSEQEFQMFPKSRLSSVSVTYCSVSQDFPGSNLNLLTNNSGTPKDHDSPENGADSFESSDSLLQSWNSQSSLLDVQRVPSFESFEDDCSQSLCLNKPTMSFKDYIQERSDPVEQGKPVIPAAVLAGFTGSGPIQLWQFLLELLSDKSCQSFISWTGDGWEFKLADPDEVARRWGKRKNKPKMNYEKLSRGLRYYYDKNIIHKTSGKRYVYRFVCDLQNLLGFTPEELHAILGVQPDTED
UniProt P19105: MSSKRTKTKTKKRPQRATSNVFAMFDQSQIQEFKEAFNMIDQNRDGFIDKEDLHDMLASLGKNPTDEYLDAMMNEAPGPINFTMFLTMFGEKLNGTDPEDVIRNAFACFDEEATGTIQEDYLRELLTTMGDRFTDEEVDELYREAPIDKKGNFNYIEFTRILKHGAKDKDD
UniProt P17096: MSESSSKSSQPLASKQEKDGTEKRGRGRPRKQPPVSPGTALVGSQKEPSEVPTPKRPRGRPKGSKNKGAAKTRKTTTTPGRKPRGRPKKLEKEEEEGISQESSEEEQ
UniProt P22307: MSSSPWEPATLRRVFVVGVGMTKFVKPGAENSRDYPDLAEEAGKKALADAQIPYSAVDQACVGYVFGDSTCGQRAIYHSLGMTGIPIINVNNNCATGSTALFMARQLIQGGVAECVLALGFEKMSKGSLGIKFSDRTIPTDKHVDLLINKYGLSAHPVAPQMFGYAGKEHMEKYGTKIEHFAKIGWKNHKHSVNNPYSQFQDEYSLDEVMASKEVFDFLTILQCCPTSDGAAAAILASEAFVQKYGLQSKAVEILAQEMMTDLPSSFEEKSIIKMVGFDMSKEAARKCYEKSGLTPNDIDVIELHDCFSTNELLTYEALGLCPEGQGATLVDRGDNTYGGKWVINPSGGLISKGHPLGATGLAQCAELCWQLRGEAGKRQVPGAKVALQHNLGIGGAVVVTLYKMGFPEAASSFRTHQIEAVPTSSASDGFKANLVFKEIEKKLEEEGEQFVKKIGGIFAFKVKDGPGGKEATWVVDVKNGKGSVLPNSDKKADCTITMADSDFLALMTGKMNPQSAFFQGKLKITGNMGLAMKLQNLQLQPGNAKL
UniProt P26583: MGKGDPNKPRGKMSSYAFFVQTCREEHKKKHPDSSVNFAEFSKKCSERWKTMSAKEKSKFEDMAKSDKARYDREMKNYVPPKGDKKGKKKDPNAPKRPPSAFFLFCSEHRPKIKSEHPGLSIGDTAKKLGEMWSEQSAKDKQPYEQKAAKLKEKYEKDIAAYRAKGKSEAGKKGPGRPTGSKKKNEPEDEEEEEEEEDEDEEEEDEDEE
UniProt P13727: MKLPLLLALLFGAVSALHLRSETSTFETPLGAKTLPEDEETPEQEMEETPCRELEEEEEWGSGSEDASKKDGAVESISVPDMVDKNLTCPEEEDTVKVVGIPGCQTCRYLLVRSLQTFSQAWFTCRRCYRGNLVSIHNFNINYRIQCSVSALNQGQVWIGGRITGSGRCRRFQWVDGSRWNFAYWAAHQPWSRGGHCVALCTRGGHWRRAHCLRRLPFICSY
UniProt P24534: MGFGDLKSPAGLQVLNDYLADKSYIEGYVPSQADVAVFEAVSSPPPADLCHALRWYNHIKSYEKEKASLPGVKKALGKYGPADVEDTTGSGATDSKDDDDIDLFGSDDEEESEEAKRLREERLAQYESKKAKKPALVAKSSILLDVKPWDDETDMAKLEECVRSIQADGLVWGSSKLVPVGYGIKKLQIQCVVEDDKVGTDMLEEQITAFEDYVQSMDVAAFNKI
UniProt P17535: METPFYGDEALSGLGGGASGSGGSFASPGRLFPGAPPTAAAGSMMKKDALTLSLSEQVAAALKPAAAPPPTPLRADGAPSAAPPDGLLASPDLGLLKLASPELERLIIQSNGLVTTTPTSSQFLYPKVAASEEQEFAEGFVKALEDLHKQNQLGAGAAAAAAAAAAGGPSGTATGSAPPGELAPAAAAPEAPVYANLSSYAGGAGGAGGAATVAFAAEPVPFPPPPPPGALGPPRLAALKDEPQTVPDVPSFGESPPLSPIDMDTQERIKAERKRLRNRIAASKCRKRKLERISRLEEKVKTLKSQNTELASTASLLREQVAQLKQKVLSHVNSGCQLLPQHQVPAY
UniProt P27816: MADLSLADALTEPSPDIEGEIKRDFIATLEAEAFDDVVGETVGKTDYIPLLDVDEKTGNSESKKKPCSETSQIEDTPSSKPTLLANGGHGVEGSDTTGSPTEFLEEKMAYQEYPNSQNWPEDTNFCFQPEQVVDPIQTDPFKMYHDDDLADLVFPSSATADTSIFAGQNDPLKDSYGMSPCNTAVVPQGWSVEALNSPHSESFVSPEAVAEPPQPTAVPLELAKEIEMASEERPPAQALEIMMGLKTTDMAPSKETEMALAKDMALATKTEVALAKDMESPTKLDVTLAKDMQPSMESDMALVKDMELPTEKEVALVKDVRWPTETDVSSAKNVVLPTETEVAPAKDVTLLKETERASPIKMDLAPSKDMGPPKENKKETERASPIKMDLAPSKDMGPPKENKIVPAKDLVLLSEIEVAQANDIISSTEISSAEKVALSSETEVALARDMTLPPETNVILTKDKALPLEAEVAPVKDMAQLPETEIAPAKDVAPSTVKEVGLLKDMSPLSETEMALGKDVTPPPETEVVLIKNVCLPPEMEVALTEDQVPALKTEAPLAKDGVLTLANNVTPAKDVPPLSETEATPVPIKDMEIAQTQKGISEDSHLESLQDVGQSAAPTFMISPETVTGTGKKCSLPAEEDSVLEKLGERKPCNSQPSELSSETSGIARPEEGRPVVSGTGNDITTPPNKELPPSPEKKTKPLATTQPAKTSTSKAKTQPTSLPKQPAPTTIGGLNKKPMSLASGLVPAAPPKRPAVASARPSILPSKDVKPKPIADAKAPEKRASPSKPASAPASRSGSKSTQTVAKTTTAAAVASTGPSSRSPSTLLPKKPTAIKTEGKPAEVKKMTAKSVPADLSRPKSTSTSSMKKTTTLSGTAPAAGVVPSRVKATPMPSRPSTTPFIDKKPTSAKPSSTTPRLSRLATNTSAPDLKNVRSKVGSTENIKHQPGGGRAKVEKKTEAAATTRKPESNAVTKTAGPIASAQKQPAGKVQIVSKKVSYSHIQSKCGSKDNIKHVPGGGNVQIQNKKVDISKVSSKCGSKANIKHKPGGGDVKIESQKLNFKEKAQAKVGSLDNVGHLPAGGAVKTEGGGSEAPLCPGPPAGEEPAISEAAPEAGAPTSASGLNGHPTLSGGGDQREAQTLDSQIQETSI
UniProt P23786: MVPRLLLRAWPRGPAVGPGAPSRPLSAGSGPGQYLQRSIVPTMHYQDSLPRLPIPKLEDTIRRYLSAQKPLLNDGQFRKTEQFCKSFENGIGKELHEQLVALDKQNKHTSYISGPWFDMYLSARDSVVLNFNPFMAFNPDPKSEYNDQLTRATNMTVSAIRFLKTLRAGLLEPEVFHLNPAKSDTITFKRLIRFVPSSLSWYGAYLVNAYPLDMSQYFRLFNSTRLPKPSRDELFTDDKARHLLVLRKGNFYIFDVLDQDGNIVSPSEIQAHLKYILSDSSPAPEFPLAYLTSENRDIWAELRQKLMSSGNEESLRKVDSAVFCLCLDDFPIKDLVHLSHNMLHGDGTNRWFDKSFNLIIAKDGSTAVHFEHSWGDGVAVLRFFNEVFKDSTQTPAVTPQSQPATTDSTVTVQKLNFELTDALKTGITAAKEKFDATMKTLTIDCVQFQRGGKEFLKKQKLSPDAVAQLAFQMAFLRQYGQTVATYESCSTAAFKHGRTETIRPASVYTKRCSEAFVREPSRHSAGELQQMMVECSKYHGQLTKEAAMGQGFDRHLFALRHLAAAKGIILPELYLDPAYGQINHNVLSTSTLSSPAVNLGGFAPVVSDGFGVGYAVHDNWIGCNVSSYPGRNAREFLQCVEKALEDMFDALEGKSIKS
UniProt P22557: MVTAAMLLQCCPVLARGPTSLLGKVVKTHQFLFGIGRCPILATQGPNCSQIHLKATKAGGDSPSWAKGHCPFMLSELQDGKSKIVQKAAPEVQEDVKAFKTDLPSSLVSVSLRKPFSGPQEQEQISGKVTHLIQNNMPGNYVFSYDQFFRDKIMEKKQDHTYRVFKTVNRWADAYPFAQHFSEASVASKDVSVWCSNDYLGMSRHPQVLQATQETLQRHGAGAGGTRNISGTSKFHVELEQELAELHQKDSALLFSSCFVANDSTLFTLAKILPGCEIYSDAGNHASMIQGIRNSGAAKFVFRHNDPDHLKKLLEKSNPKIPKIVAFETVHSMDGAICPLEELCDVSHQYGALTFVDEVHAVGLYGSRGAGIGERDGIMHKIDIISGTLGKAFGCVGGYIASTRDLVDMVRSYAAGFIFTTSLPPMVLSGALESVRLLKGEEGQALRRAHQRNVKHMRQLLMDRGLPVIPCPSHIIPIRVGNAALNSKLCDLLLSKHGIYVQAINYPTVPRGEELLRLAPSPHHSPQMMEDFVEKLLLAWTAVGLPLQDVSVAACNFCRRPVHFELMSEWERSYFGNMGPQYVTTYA
UniProt P17987, whole entry: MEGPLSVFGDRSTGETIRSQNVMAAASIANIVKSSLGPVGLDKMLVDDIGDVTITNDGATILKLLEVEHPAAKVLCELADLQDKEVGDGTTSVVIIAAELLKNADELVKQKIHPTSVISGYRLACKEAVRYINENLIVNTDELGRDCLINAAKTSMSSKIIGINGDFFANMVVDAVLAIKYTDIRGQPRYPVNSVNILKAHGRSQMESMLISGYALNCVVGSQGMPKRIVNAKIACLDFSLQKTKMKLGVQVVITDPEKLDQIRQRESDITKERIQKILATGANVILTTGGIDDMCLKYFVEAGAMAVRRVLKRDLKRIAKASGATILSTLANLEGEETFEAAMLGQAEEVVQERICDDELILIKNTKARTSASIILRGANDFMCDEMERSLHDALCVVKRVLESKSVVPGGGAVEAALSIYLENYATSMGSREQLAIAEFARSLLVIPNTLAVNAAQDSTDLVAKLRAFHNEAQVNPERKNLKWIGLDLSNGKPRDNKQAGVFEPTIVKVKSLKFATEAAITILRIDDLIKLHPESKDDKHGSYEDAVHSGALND
UniProt P14854, whole entry: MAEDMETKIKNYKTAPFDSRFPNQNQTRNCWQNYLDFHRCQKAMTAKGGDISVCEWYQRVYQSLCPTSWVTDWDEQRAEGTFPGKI
UniProt P23921: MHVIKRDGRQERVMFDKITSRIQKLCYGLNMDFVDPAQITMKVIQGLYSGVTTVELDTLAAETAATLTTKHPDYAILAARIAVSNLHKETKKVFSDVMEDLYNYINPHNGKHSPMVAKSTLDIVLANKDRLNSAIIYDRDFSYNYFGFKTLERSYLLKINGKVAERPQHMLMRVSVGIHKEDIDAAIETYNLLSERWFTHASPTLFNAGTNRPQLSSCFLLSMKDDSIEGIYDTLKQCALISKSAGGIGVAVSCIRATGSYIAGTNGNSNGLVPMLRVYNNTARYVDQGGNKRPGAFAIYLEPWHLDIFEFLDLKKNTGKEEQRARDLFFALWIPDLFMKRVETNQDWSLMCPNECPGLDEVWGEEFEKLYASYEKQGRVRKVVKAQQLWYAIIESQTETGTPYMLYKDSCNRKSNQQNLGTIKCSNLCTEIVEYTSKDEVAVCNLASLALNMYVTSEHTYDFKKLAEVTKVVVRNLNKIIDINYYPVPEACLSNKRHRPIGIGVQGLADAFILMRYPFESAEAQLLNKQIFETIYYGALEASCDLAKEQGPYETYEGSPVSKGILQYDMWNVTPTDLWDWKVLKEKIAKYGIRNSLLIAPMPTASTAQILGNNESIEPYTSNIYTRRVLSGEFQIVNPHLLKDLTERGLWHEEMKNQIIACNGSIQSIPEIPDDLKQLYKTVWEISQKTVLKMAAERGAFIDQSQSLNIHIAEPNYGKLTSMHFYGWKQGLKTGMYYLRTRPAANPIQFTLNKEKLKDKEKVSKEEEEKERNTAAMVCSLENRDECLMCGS
UniProt P28065: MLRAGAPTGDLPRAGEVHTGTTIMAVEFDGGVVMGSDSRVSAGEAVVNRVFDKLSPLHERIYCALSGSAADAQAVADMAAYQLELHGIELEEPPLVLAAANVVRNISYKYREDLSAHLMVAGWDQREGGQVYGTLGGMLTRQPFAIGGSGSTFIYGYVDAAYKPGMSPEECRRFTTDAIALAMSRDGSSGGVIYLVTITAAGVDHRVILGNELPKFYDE
UniProt P23763, whole entry: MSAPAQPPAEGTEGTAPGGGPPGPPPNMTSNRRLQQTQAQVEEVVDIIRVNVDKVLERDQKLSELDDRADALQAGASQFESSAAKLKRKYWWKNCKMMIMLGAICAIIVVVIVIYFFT
UniProt P27469: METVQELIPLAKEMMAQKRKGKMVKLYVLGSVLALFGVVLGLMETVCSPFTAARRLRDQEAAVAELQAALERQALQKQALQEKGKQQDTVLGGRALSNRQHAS

These targets were tested with CN[C@@H]1C[C@H]2O[C@@](C)([C@@H]1OC)n1c3ccccc3c3c4c(c5c6ccccc6n2c5c31)C(=O)NC4 [staurosporine] (assay: log2 fold change of tryptic peptide abundance, ligand vs vehicle (limited proteolysis) (log2 ratio); higher = more trypsin-susceptible (destabilized)). Conditions: ligand concentration: 20 uM; sample: K562 cleared lysate; digestion: 4 min, 22 C (HT-PELSA RT4min, Orbitrap Astral).

Row | Target | log2 fold change
1 | UniProt P15036 (peptide sequence: LADPDEVAR, peptide start residue: 393) | 0.252
2 | MYL12A (peptide sequence: GNFNYIEFTR, peptide start residue: 152) (UniProt P19105) | -0.156
3 | HMGA1 (peptide sequence: KTTTTPGR, peptide start residue: 74) (UniProt P17096) | 0.0658
4 | NFKB1 (peptide sequence: SDDKNTVNLFGK, peptide start residue: 449) (UniProt P19838) | -0.404
5 | PTPN3 (peptide sequence: KSVNNQYCKK, peptide start residue: 334) (UniProt P26045) | -0.0316
6 | SCP2 (peptide sequence: EATWVVDVK, peptide start residue: 471) (UniProt P22307) | -0.403
7 | CANX (peptide sequence: AEEDEILNR, peptide start residue: 574) (UniProt P27824) | -0.0822
8 | HMGB2 (peptide sequence: SKFEDMAK, peptide start residue: 58) (UniProt P26583) | 1.28
9 | GPD1 (peptide sequence: KLTEIINTQHENVK, peptide start residue: 49) (UniProt P21695) | 0.803
10 | PRG2 (peptide sequence: GNLVSIHNFNINYR, peptide start residue: 131) (UniProt P13727) | 0.699
11 | UniProt P17035 (peptide sequence: SFQCIESGK, peptide start residue: 214) | -0.287
12 | EEF1B2 (peptide sequence: WYNHIKSYEKEK, peptide start residue: 55) (UniProt P24534) | 0.811
13 | JUND (peptide sequence: LASPELER, peptide start residue: 71) (UniProt P17535) | -0.211
14 | UniProt P25398 (peptide sequence: DVIEEYFKCKK, peptide start residue: 122) | -0.173
15 | RPL10 (peptide sequence: FNADEFEDMVAEKR, peptide start residue: 176) (UniProt P27635) | -0.089
16 | UniProt P26651 (peptide sequence: RDPTPVCCPSCR, peptide start residue: 243) | -0.318
17 | EGR1 (peptide sequence: AFATQSGSQDLK, peptide start residue: 294) (UniProt P18146) | -0.753
18 | RAB4A (peptide sequence: MGSGIQYGDAALR, peptide start residue: 188) (UniProt P20338) | -0.00139
19 | NFYB (peptide sequence: NAIPQTGKIAK, peptide start residue: 70) (UniProt P25208) | 0.472
20 | MAP4 (peptide sequence: TTDMAPSK, peptide start residue: 247) (UniProt P27816) | -0.444

Row | Target | log2 fold change
21 | RASA1 (peptide sequence: EIYNTIR, peptide start residue: 458) (UniProt P20936) | -0.168
22 | PSMB5 (peptide sequence: ATAGAYIASQTVKK, peptide start residue: 79) (UniProt P28074) | -0.55
23 | CPT2 (peptide sequence: SIVPTMHYQDSLPR, peptide start residue: 38) (UniProt P23786) | 0.305
24 | AKR1A1 (peptide sequence: AASCVLLHTGQK, peptide start residue: 2) (UniProt P14550) | -0.507
25 | SFPQ (peptide sequence: FAQHGTFEYEYSQR, peptide start residue: 480) (UniProt P23246) | -0.17
26 | ALAS2 (peptide sequence: RPVHFELMSEWER, peptide start residue: 560) (UniProt P22557) | -0.283
27 | PSMB6 (peptide sequence: FAVATLPPA, peptide start residue: 231) (UniProt P28072) | -0.101
28 | MSN (peptide sequence: GMLREDAVLEYLK, peptide start residue: 181) (UniProt P26038) | 0.288
29 | TCP1 (peptide sequence: ICDDELILIKNTK, peptide start residue: 356) (UniProt P17987) | 0.315
30 | PTBP1 (peptide sequence: EGQEDQGLTK, peptide start residue: 445) (UniProt P26599) | -0.0903
31 | APC (peptide sequence: GGAQSGEFEKR, peptide start residue: 1677) (UniProt P25054) | 1.01
32 | COX6B1 (peptide sequence: AEGTFPGKI, peptide start residue: 78) (UniProt P14854) | -0.119
33 | TNFRSF1B (peptide sequence: VPHLPADK, peptide start residue: 300) (UniProt P20333) | -0.268
34 | PSMA2 (peptide sequence: AANGVVLATEKK, peptide start residue: 40) (UniProt P25787) | 0.0498
35 | GSPT1 (peptide sequence: AYFETEKK, peptide start residue: 145) (UniProt P15170) | 0.0833
36 | RRM1 (peptide sequence: KVFSDVMEDLYNYINPHNGK, peptide start residue: 92) (UniProt P23921) | 0.187
37 | PSMB9 (peptide sequence: AGAPTGDLPR, peptide start residue: 4) (UniProt P28065) | -0.123
38 | TNFAIP3 (peptide sequence: TFNGICSTCFKR, peptide start residue: 531) (UniProt P21580) | -0.171
39 | UniProt P23763 (peptide sequence: VNVDKVLER, peptide start residue: 31) | -0.141
40 | G0S2 (peptide sequence: QQDTVLGGR, peptide start residue: 86) (UniProt P27469) | 0.348

Taken from the results shown (nine entries):
Row | Target | log2 fold change
27 | PSMB6 (peptide sequence: FAVATLPPA, peptide start residue: 231) (UniProt P28072) | -0.101
28 | MSN (peptide sequence: GMLREDAVLEYLK, peptide start residue: 181) (UniProt P26038) | 0.288
29 | TCP1 (peptide sequence: ICDDELILIKNTK, peptide start residue: 356) (UniProt P17987) | 0.315
30 | PTBP1 (peptide sequence: EGQEDQGLTK, peptide start residue: 445) (UniProt P26599) | -0.0903
31 | APC (peptide sequence: GGAQSGEFEKR, peptide start residue: 1677) (UniProt P25054) | 1.01
32 | COX6B1 (peptide sequence: AEGTFPGKI, peptide start residue: 78) (UniProt P14854) | -0.119
33 | TNFRSF1B (peptide sequence: VPHLPADK, peptide start residue: 300) (UniProt P20333) | -0.268
34 | PSMA2 (peptide sequence: AANGVVLATEKK, peptide start residue: 40) (UniProt P25787) | 0.0498
35 | GSPT1 (peptide sequence: AYFETEKK, peptide start residue: 145) (UniProt P15170) | 0.0833
